Assay results as given in PMC11656939.

Sequences of proteins named here, by UniProt entry; tags and fusion partners are left off.
UniProt Q99832: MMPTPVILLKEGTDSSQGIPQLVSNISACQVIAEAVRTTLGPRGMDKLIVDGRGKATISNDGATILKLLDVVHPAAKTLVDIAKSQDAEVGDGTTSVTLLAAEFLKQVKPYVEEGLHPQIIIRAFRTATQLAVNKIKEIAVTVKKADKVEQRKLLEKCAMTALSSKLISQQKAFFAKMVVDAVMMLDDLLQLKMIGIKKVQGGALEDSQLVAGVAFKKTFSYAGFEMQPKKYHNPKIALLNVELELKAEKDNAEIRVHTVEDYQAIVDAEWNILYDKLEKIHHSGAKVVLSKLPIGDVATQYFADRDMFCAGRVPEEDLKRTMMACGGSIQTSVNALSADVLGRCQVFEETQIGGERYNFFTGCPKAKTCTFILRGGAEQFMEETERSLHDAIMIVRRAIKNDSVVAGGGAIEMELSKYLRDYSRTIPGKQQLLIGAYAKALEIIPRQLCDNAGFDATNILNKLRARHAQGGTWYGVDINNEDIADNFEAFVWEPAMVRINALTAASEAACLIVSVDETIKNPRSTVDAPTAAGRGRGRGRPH
UniProt P60520: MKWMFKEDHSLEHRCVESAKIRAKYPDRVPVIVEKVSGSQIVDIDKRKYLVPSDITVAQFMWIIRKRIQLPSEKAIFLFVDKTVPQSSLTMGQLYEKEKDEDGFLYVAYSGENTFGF
UniProt P31749: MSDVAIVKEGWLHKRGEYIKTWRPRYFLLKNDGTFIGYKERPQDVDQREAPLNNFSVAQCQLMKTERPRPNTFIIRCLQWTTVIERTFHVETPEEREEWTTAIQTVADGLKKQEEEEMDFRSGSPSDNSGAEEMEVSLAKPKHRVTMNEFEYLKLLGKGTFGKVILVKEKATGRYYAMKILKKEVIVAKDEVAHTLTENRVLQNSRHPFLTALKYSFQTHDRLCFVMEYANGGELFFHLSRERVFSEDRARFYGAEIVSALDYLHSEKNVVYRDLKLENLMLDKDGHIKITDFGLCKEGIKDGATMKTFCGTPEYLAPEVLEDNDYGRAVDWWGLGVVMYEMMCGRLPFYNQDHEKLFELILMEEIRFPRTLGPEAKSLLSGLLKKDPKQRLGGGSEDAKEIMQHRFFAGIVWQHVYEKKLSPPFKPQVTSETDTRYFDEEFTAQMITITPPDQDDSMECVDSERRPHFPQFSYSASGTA
UniProt O95292: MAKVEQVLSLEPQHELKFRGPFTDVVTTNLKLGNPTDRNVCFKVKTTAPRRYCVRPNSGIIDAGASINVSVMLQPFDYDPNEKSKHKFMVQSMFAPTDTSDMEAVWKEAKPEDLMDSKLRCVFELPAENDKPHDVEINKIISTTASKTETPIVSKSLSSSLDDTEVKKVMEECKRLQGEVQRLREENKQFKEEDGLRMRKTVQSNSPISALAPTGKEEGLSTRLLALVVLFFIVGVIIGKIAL

Each substance was assayed against T1, ORP7-mycBirA (UniProt Q9BZF2) (assay: proximity labelling; ORP7-mycBirA bait in lentivirally transduced HUVECs against mycBirA control cells; three 10-cm plates per sample; captured proteins by LC-MS/MS; filtered with SAINT and CRAPome).
T1 sequence: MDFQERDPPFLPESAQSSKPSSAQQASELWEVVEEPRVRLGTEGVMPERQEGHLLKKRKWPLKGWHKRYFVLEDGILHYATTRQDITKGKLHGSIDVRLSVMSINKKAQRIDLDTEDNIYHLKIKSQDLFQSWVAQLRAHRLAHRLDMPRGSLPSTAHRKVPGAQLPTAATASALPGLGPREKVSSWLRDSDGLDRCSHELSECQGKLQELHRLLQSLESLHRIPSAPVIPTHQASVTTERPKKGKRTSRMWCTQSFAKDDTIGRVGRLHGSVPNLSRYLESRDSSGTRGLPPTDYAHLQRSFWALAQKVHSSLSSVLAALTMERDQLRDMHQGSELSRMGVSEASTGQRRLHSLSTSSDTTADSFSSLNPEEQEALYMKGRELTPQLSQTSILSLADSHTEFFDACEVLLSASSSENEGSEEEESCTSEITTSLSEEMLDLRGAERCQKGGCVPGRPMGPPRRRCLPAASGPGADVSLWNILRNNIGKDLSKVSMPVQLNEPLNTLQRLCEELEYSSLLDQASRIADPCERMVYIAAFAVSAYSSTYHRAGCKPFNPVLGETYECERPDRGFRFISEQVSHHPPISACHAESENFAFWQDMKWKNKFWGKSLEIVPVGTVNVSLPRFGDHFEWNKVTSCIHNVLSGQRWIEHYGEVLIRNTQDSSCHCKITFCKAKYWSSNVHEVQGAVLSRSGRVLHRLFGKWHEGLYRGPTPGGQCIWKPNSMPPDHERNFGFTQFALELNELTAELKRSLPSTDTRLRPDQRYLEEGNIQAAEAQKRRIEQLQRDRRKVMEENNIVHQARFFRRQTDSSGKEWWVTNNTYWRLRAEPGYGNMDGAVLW

binding | Substance
binds | Chaperonin Containing TCP1 subunit 7 (CCT7) (from UniProt Q99832 1-543)
no binding | GABA type A receptor-associated protein like 2 (GABARAPL2) (from UniProt P60520 1-117)
binds | RAC-alpha serine/threonine-protein kinase (AKT1) (from UniProt P31749 1-480)
no binding | VAPB (from UniProt O95292 1-243)

No constants are given. Whether binding was seen depends on the method and setting. In cells and extracts the contact can be indirect. Here binding means that the protein was enriched with, or labelled near, the bait; the list need not be complete. A no says only that the protein was not detected with the bait. Sequences can lack the tags named with a protein.
